The subject of the test is P388 leukemia ip, CD2F1 mice, survival T/C. The test can be described thus: NCI In Vivo Anticancer Drug Screen. Data for tumor model P388 Leukemia (intraperitoneal) in CD2F1 (CDF1) mice. The settings on record: T/C endpoint: median survival time, higher T/C = longer survival.
[1] abbreviates: dose: 1.0 mg/kg/injection, schedule: Q01DX009 (ip), vehicle: other.
Where [2] appears, read: dose: 2.0 mg/kg/injection, schedule: Q01DX009 (ip), vehicle: other.
[3] abbreviates: dose: 2.0 mg/kg/injection, schedule: Q01DX009 (ip), vehicle: water.

The list shows only some results of the screen, not a fair sample: it gathers tests that were run many times, whatever their T/C, doses with no T/C, and many T/C values between a quarter and a half above the control. Further doses and runs are listed elsewhere. T/C gives the treated animals as a percentage of the vehicle group. Some doses have a count of surviving animals in place of a T/C: the source holds a T/C of zero for them, seemingly a mark for toxic or unscored doses. Some doses without a T/C left all or most animals alive at the check, yet need not have been tolerated: survival well below the control is almost never listed, so the zero probably covers shortened survival too. Survivors were counted at the toxicity check, usually on the fifth day, unless a day is given; later deaths do not show. Schedules are NCI's codes, taken here to give the interval after Q, in days (D) or hours (H), and the number of doses after X. Some entries were tested several times; their values stand side by side, smallest first. For survival time, the PubChem record calls one and a half times the control and up active, and a quarter to a half above the control has no call in these data; cut-offs in other NCI protocols can differ. Additions like (4×) stand for listed records that agree.

In the case of `CC(C)CCCCCCCCCCCCC(=O)NCC(=O)NC1C(O)C(O)C(Nc2ncnc3nc[nH]c23)OC1C(O)CO` (configuration not stated), the T/C by setting is: (dose: 0.12 mg/kg/injection, schedule: Q01DX009 (ip), vehicle: other) 144 % of control; (dose: 0.12 mg/kg/injection, schedule: Q01DX009 (ip), vehicle: water) 128 % of control; (dose: 0.13 mg/kg/injection, schedule: Q01DX009 (ip), vehicle: distilled water + Tween-80) 141 % of control; (dose: 0.13 mg/kg/injection, schedule: Q01DX009 (ip), vehicle: distilled water + alcohol) 135 % of control; (dose: 0.13 mg/kg/injection, schedule: Q01DX009 (ip), vehicle: other) 120, 122, 133, 137, 141 % of control; (dose: 0.13 mg/kg/injection, schedule: Q01DX009 (ip), vehicle: saline with Tween-80) 133 and 142 % of control. Also, the T/C is, setting by setting: (dose: 0.13 mg/kg/injection, schedule: Q01DX009 (ip), vehicle: water) 129, 130, 131, 132 (2×), 133, 134, 135, 136 (2×), 137, 138 % of control; (dose: 0.25 mg/kg/injection, schedule: Q01DX009 (ip), vehicle: Klucel (hydroxypropylcellulose) (HPC)) 130 % of control; (dose: 0.25 mg/kg/injection, schedule: Q01DX009 (ip), vehicle: distilled water + Tween-80) 142 % of control; (dose: 0.25 mg/kg/injection, schedule: Q01DX009 (ip), vehicle: other) 128, 142, 144, 146, 151, 169 % of control; (dose: 0.25 mg/kg/injection, schedule: Q01DX009 (ip), vehicle: saline with Tween-80) 141 % of control; (dose: 0.25 mg/kg/injection, schedule: Q01DX009 (ip), vehicle: water) 133 (2×), 136, 137, 138, 140, 141 (2×), 142 (2×), 148, 154, 156 % of control. Also, the T/C is, setting by setting: (dose: 0.5 mg/kg/injection, schedule: Q01DX009 (ip), vehicle: Klucel (hydroxypropylcellulose) (HPC)) 138 % of control; (dose: 0.5 mg/kg/injection, schedule: Q01DX009 (ip), vehicle: distilled water + alcohol) 147 % of control; (dose: 0.5 mg/kg/injection, schedule: Q01DX009 (ip), vehicle: other) 139, 143, 154, 159 (2×), 179 % of control; (dose: 0.5 mg/kg/injection, schedule: Q01DX009 (ip), vehicle: saline with Tween-80) 149 % of control; (dose: 0.5 mg/kg/injection, schedule: Q01DX009 (ip), vehicle: water) 141, 143, 144, 148, 151, 153, 154, 157, 158, 159, 166, 168, 172 % of control; (dose: 1.0 mg/kg/injection, schedule: Q01DX009 (ip), vehicle: Klucel (hydroxypropylcellulose) (HPC)) 141 % of control. Further, the T/C is, setting by setting: under setting [1], 86, 90, 113, 116 % of control; (dose: 1.0 mg/kg/injection, schedule: Q01DX009 (ip), vehicle: water) 93, 100, 101, 109, 113, 140, 145, 153, 157, 160, 161, 166, 176 % of control; (dose: 2.0 mg/kg/injection, schedule: Q01DX009 (ip), vehicle: distilled water + alcohol) 125 % of control; under setting [2], 88 % of control; under setting [3], 89, 90, 96, 99, 107, 175 % of control. For the same molecule, the survivor count is, setting by setting: (dose: 1.0 mg/kg/injection, schedule: Q01DX009 (ip), vehicle: distilled water + Tween-80) 6 of 6; under setting [1], 6 of 6; (dose: 2.0 mg/kg/injection, schedule: Q01DX009 (ip), vehicle: distilled water + Tween-80) 6 of 6; under setting [2], 5 of 6 and 6 of 6; (dose: 2.0 mg/kg/injection, schedule: Q01DX009 (ip), vehicle: saline with Tween-80) 6 of 6; under setting [3], 6 of 6. Moreover, the survivor count reads like this: (dose: 4.0 mg/kg/injection, schedule: Q01DX009 (ip), vehicle: saline with Tween-80) 6 of 6; (dose: 4.0 mg/kg/injection, schedule: Q01DX009 (ip), vehicle: water) 6 of 6.
On to `CN=NNc1ccc(C)cc1`, for which the survivor count was 4 of 6 (dose: 100.0 mg/kg/injection, schedule: Q01DX009 (ip), vehicle: distilled water + Tween-80) and 1 of 6 (dose: 200.0 mg/kg/injection, schedule: Q01DX009 (ip), vehicle: distilled water + Tween-80).
As to `O=c1oc2ccccc2c(O)c1C=Nc1ccccc1`, the survivor count by setting is: (dose: 50.0 mg/kg/injection, schedule: Q01DX009 (ip), vehicle: saline with Tween-80) 4 of 6 and 6 of 6; (dose: 100.0 mg/kg/injection, schedule: Q01DX009 (ip), vehicle: saline with Tween-80) 0 of 6; (dose: 200.0 mg/kg/injection, schedule: Q01DX009 (ip), vehicle: saline with Tween-80) 0 of 6.
For `CCCCn1c2nc(=O)[nH]c(=O)c-2[n+]([O-])c2ccccc21`, the survivor count (dose: 100.0 mg/kg/injection, schedule: Q01DX001 (ip), vehicle: saline with Tween-80) is listed as 1 of 6.

The values above are taken from PubChem BioAssay AID330 (DTP/NCI, 2004).
